At least one compound was matched to its structure with a doubt left.
Experiments:
[1] = system: calf thymus DNA; experiment: Permanganate oxidation of calf thymus DNA incubated with intercalator or glucose; conditions: 35° C.
[2] = system: duplex DNA; conditions: published data; cited from earlier work
[3] = system: calf thymus DNA (Z-DNA); experiment: Permanganate oxidation of calf thymus Z-DNA (NaCl) incubated with intercalators
Procedure: The intercalator (10 μl, […]) was incubated with the solution containing calf thymus DNA (5 μl, 8.27 μg) and NaCl (600 μl, 5M NaCl solution) in water (355 μl) at 40° C. for 1 h. The reaction mixture was treated with KMnO4 (30μ of 10 mM solution) and maintained at 35° C. for 60 min. The absorbance at 420 nm was obtained at 2 min and 60 min by Cary 300 spectrophotometer (Varian Inc.). The level of oxidation was based on the absorbance at A420 nm of the experiment and control (without DNA) experiments as described in the experimental section. Four intercalators (with published data on unwinding degree) were used in the experiment: doxorubicin (10°), daunomycin (12°), 9-aminoacridine (17°) and ethidium bromide (28°); and
Due to limited information about the degree of unwinding of intercalators, only four intercalators with different degree of unwinding were employed in the experiment: doxorubicin (10°), daunorubicin (12°), 9-aminoacridine (17°) and ethidium bromide (28°). The Z-DNA samples were mixed in equal amounts of intercalators and the reactions were carried out under identical conditions. Calf thymus DNA (5 μl, 8.27 μg) was incubated with NaCl (600 μl, SM NaCl solution), the DNA binding agent or intercalator (10 μl, 6.3 nmol) in distilled H2O (355 μl). 4 non-sequence specific intercalators were used in the model study: doxorubicin, daunorubicin, 9-aminoacridine and ethidium bromide. The reaction mixture was gently mixed on shaker at 40° C. for 1 h. After incubation time, KMnO4 (30 μl) was added to the reaction mixture and the resulting mixture was transferred to the quartz cuvette and the absorbance (420 nm) was obtained at 35° C. for 2- and 60-min time-points. The level of oxidation induced by intercalator is based on the net absorbance and calculated as follows:
Net A420 nm=[A420 nm of the Expt (60 min)−A420 nm of the Expt (2 min)]−[A420 nm of the Control (60 min)−A420 nm of the Control (2 min)]
Where Net A420 nm represents the level of oxidation of the DNA-chemical adduct.
The Expt=calf thymus DNA+NaCl+DNA binding agent+KMnO4
The Control=DNA binding agent+KMnO4.
The control experiment (without DNA binding agent) was treated under identical conditions as described above.

[4] = system: calf thymus DNA; experiment: Permanganate oxidation of calf thymus B-DNA at different concentrations of ethidium bromide; conditions: 25° C.

CC[n+]1c(-c2ccccc2)c2cc(N)ccc2c2ccc(N)cc21 [ethidium bromide]
Level of oxidation (induced by chemical) Net A420 nm ([1]; Expt minus Control, 2 min-2 h): 0.193 arbitrary unit
ΔA420 nm (2 min-2 h) (Expt) ([1]; calf thymus DNA + agent + KMnO4): 0.333
degree of unwinding [2]: 28 °
Level of oxidation (induced by chemical) Net A420 nm ([3]; Z-DNA (NaCl), Expt minus Control, 2 min-1 h, 35° C.): 0.0633 arbitrary unit
rate of permanganate oxidation (kinetic data) ([3]; Z-DNA incubated with intercalator, ranking among the four intercalators): slowest
oxidation level on addition of intercalator to Z-DNA solution ([3]; Z-DNA solution): decreased
ΔA420 nm (2 min-1 h) (Expt) ([3]; calf thymus DNA + NaCl + intercalator 6.3 nmol + KMnO4, 35° C.): 0.1761
Level of oxidation (induced by chemical) Net A420 nm ([4]; 1.575 nmol ethidium bromide): 0.058 arbitrary unit
Level of oxidation (induced by chemical) Net A420 nm ([4]; 3.15 nmol ethidium bromide): 0.084 arbitrary unit
ΔA420 nm (2 min-2 h) (Expt) ([4]; 3.15 nmol ethidium bromide): 0.151
Level of oxidation (induced by chemical) Net A420 nm ([4]; 6.3 nmol ethidium bromide): 0.097 arbitrary unit
ΔA420 nm (2 min-2 h) (Expt) ([4]; 6.3 nmol ethidium bromide): 0.228
Level of oxidation (induced by chemical) Net A420 nm ([4]; 12.6 nmol ethidium bromide): 0.111 arbitrary unit
ΔA420 nm (2 min-2 h) (Expt) ([4]; 12.6 nmol ethidium bromide): 0.295

Source: US20040234992A1, “Method of detection of conformational change in a nucleic acid duplex by treatment with oxidising or reactive agent as a result of exposure to environmental or chemical conditions” (priority 2001, published 2004)
